# Results: the supplement of paper PMC12823440, “Inhibitors supercharge kinase turnover through native proteolytic circuits” (Nature, 2025)
# The chains behind the UniProt entries cited, without tags or fusion partners. Where a name states a change or a piece, a line headed by the entry shows the natural chain unless it says otherwise.
# UniProt P48729: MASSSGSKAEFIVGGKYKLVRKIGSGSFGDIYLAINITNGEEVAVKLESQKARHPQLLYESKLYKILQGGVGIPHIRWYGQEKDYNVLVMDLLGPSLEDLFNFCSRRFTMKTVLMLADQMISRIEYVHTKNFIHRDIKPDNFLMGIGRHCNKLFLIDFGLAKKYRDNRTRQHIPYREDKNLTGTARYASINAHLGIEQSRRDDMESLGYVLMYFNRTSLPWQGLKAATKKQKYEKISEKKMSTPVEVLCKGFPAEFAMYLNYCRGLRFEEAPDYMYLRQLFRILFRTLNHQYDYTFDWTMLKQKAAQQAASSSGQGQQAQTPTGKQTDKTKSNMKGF
# UniProt P48730: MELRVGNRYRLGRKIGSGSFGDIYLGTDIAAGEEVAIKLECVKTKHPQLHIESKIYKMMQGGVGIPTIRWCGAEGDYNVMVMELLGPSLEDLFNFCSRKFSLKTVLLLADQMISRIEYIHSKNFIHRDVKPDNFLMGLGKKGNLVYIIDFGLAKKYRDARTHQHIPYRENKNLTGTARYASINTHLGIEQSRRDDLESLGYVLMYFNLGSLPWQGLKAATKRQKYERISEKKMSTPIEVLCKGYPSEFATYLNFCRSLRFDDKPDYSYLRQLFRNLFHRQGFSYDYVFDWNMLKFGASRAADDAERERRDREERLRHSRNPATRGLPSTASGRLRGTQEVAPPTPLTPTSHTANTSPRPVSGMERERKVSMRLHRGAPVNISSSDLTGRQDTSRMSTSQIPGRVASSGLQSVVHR
# UniProt Q08345: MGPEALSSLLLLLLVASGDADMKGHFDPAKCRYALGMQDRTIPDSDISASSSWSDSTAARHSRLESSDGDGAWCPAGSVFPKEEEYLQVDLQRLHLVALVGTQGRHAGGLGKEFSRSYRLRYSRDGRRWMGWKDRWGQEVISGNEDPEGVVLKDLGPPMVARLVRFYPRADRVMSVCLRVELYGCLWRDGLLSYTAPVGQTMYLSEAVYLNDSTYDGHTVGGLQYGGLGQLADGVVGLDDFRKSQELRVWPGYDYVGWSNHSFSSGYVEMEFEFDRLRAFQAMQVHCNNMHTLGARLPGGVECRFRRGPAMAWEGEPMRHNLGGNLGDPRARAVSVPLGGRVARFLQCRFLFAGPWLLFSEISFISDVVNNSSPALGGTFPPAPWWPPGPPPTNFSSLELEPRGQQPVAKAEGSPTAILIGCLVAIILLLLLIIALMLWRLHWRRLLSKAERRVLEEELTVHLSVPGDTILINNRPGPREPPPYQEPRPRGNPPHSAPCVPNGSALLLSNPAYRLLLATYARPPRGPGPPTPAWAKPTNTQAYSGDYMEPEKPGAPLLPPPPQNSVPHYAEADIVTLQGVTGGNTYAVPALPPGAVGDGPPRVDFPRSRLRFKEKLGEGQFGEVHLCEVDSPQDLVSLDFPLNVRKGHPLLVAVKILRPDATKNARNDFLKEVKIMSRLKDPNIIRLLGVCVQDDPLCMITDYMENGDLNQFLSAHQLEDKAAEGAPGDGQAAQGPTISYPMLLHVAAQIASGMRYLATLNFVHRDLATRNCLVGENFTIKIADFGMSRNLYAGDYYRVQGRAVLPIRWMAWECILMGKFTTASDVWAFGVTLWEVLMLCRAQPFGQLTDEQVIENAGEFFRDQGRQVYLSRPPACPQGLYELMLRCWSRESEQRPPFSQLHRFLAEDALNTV
# UniProt Q9Y463, whole entry, looked up: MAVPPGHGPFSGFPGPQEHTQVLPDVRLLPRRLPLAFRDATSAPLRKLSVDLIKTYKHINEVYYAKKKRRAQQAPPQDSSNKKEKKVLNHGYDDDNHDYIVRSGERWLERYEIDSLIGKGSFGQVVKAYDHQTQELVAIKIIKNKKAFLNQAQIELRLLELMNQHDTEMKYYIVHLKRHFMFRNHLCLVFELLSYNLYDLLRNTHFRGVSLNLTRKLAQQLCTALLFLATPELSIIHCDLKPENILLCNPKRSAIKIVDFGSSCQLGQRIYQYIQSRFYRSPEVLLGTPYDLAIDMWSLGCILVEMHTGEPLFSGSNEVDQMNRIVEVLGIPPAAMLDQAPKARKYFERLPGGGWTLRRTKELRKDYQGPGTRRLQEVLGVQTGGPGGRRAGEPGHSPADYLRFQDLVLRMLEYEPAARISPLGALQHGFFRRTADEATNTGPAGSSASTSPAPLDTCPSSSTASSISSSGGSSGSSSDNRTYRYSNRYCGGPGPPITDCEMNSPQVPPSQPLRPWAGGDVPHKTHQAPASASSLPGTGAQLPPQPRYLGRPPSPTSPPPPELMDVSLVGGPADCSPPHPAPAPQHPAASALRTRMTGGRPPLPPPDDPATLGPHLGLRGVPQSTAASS
# UniProt Q92630: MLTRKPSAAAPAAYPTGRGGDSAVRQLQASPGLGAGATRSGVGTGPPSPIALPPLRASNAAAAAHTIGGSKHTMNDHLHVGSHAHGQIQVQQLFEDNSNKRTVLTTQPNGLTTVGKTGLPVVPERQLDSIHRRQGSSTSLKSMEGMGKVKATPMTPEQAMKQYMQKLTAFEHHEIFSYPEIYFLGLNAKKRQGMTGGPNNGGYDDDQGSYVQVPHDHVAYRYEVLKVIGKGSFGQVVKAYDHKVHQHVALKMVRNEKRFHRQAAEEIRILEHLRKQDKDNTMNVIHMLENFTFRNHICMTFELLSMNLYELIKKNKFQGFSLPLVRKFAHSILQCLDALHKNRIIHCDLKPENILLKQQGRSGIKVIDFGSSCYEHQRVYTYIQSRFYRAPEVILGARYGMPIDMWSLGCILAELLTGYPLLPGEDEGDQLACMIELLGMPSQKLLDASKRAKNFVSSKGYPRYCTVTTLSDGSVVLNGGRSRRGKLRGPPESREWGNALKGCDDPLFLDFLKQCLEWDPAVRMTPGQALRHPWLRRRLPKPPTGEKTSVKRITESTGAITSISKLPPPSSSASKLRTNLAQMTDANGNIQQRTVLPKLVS
# Counter-ions that a name gives are not always drawn. The list shows a part of the results. Hit calls seldom repeat between salt and free forms of one compound.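 Kinases were expressed as nanoluciferase fusions in K562 cells and luminescence was read every 4 h between 2 and 18 h as percent of control, DMSO set to 100% and a positive control to 0%. A time point counts as decreased when the signal drops significantly (2 sigma). The hit call is the authors' own, does not follow from the count of time points alone, and its rule is not shown.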
# Legend:
# Experiment in all cases: number of time points (of 5) at which kinase-Nluc abundance scored as decreased, DMSO-normalised (count); higher = more persistent destabilization
# Details in all cases: K562; 2-18 h
# CSNK1A1 = CSNK1A1 (UniProt P48729)
# CSNK1D = CSNK1D (UniProt P48730)
# DDR1 = DDR1 (UniProt Q08345)
# DYRK1B = DYRK1B (UniProt Q9Y463)
# DYRK2 = DYRK2 (UniProt Q92630)
# EGFR = EGFR (UniProt P00533)
# EGFR_G719S = EGFR_G719S (UniProt P00533)
# EGFR_G719S_T790M = EGFR_G719S_T790M (UniProt P00533)
# EGFR_L718V = EGFR_L718V (UniProt P00533)
# EGFR_L858R = EGFR_L858R (UniProt P00533)
Compound,number of time points (CSNK1A1),number of time points (CSNK1D),number of time points (DDR1),number of time points (DYRK1B),number of time points (DYRK2),number of time points (EGFR),number of time points (EGFR_G719S),number of time points (EGFR_G719S_T790M),number of time points (EGFR_L718V),number of time points (EGFR_L858R)
NCCc1cn(S(=O)(=O)c2c(Cl)nc3sccn23)c2ccccc12 (10 µM),0,0,0,0,0,0,0,0,0,0
COc1ccc(/C=C/c2cc(OC)c(OC)c(OC)c2)cc1 (2.5 µM),0,0,1,0,1,0,0,3,2,2
COc1ccc2c(c1)/C(=C/c1cnc[nH]1)C(=O)N2 (2.5 µM),0,0,0,0,0,0,0,0,0,0
CC(=O)c1c(O)c(C)c(O)c(Cc2c(O)c3c(c(C(=O)/C=C/c4ccccc4)c2O)OC(C)(C)C=C3)c1O [Rottlerin] (2 µM),0,0,0,0,0,0,0,0,0,0
C[S+]([O-])/C=C/CCN=C=S (stereo not given) [Sulforaphene] (10 µM),0,0,0,0,0,0,0,0,0,0
COc1ccc2c(c1)[nH]c1c(C)nccc12 [Harmine] (10 µM),0,0,0,0,0,0,0,0,0,0
C=C[C@H]1CN2CC[C@]3(C(=O)Nc4ccccc43)[C@@H]2C[C@@H]1/C(=C\OC)C(=O)OC [Corynoxeine] (2 µM),0,0,0,0,0,0,0,0,0,0
C[C@H](CCC(=O)O)C[C@H](C)C[C@H](C)C(=O)/C=C(\O)[C@H](C)C[C@H](C)C/C=C/[C@@H](C)[C@@H](O)[C@@H](C)[C@@H](O)C[C@@H]1CC[C@@](C)([C@H]2CC[C@@](C)([C@@H](C)O)O2)O1 [Ionomycin (calcium)] (2.5 µM),0,0,0,0,0,0,0,0,0,0
O=c1[nH]c2ccccc2n1C1CCN(Cc2ccc(-c3[nH]c4cc5ncnc5cc4nc3-c3ccccc3)cc2)CC1 [AKT inhibitor VIII] (2.5 µM),0,0,0,0,0,0,0,0,0,0
O=c1cc(O)c2ccccc2o1 [4-Hydroxycoumarin] (10 µM),0,0,0,0,0,0,0,0,0,0
CCOC(=O)c1c(/C(C#N)=C\N)c2ccc(Cl)c(Cl)c2n1C (10 µM),0,0,0,0,0,0,0,0,0,0
N#CC(C#N)=Cc1ccc(O)c(O)c1 [Tyrphostin 23] (10 µM),0,0,0,0,0,,,,,
COc1cc2c(cc1F)C(c1ccccc1Cl)=Nc1c(n[nH]c1C)N2 (0.5 µM),0,0,0,0,0,,,,,
C[C@H]1CC[C@]2(NC1)O[C@H]1C[C@H]3[C@@H]4CC[C@H]5C[C@@H](O[C@@H]6O[C@H](CO)[C@H](O[C@@H]7O[C@H](CO)[C@@H](O)[C@H](O[C@@H]8OC[C@@H](O)[C@H](O)[C@H]8O)[C@H]7O[C@@H]7O[C@H](CO)[C@@H](O)[C@H](O)[C@H]7O)[C@H](O)[C@H]6O)CC[C@]5(C)[C@H]4CC[C@]3(C)[C@H]1[C@@H]2C [Tomatine] (2.5 µM),0,4,0,0,0,0,0,0,0,0
CC1=C[C@]23C(=O)[C@@H](C=C(CO)[C@@H](O)[C@]2(O)[C@H]1O)[C@H]1[C@@H](C[C@H]3C)C1(C)C [Ingenol] (10 µM),0,0,0,0,0,0,0,0,0,0
Cc1[nH]ncc1-c1cc2nc([C@H]3CC4CCN3CC4)[nH]c(=O)c2s1 [(R)-Simurosertib] (10 µM),0,0,0,0,0,0,0,0,0,0
C=CC(=O)Nc1ccc2[nH]c(=O)n(C3CCN(Cc4ccc(-c5nc6cc[nH]c(=O)c6cc5-c5ccccc5)cc4)CC3)c2c1 [Borussertib] (10 µM),0,0,0,0,0,2,0,0,0,0
C[C@H](Nc1ncnc2[nH]cnc12)c1nc2ccc(F)cc2c(=O)n1-c1ccccc1 [Acalisib] (10 µM),0,0,0,0,0,0,0,0,0,0
O=C1c2ccccc2C(=O)c2c1cccc2-c1cnn(C2CCNCC2)c1 [PDK4-IN-1 (hydrochloride)] (10 µM),0,0,0,0,0,0,0,0,0,0

Compound,number of time points (CSNK1A1),number of time points (CSNK1D),number of time points (DDR1),number of time points (DYRK1B),number of time points (DYRK2),number of time points (EGFR),number of time points (EGFR_G719S),number of time points (EGFR_G719S_T790M),number of time points (EGFR_L718V),number of time points (EGFR_L858R)
CCN1CCN(C(=O)Cc2ccc(Nc3ncc(F)c(Nc4ccc(C(=O)Nc5ccccc5Cl)cc4)n3)cc2)CC1 (2.5 µM),0,0,0,0,0,0,0,0,0,0
O=C(/C=C/c1ccccc1)OC[C@H]1O[C@@H](O[C@@H]2OC=C[C@H]3[C@H](O)[C@@H]4O[C@]4(CO)[C@@H]23)[C@H](O)[C@@H](O)[C@@H]1O [Picroside I] (10 µM),0,0,0,0,0,0,0,0,0,0
CN(C)C(=O)c1ccc(Cn2c(C(=O)O)cc3c(Br)cc(Sc4ccc(Cl)c(Cl)c4)cc32)cc1 [Rheb inhibitor NR1] (10 µM),0,0,0,0,0,0,0,0,0,0
O=[N+]([O-])/C=C/c1ccc2c(c1)OCO2 (2.5 µM),0,0,0,1,0,0,0,0,0,0
CC(C)=CC[C@@H](OC(=O)CC(C)(C)O)C1=CC(=O)c2c(O)ccc(O)c2C1=O [β-Hydroxyisovalerylshikonin] (2.5 µM),0,0,0,0,0,0,0,0,0,0
C[C@@H]1CC[C@H]2[C@@H](C)C(=O)O[C@@H]3O[C@@]4(C)CC[C@@H]1[C@]32OO4 [Artemisinin] (10 µM),0,0,0,0,0,0,0,0,0,0
CC(=O)O[C@H]1[C@H]2[C@@H](OC(=O)Cc3ccccc3)[C@@H](C)C[C@]2(OC(C)=O)C(=O)/C(C)=C/[C@@H]2[C@H](CC[C@@]13CO3)C2(C)C [Euphorbiasteroid] (10 µM),0,0,0,0,0,0,0,0,0,0
COc1ccc(N(C(=O)Oc2c(C)cccc2C)c2ccnc(Nc3ccc(N4CCN(C)CC4)cc3)n2)c(OC)c1 (2.5 µM),0,0,0,0,0,0,0,0,0,0
N#CC(C#N)=Cc1ccc([N+](=O)[O-])c(O)c1 (10 µM),0,0,0,0,0,0,0,0,0,0
O=Cc1cn(Cc2ccc(Cl)cc2)c2ccccc12 [Oncrasin-1] (10 µM),0,0,0,0,0,0,0,0,0,0
Cc1n[nH]cc1-c1cc2nc([C@@H]3CC4CCN3CC4)[nH]c(=O)c2s1 [Simurosertib] (2.5 µM),0,0,0,0,0,0,0,0,0,0
CC(C)(C)c1cc(C=C(C#N)C#N)cc(Br)c1O (2.5 µM),0,0,0,0,0,0,0,0,0,0
C/C=C(/C)C(=O)O[C@H]1[C@@H]2[C@H](C)C(=O)O[C@@H]2C[C@@H](C)[C@@H]2C=CC(=O)[C@]21C [Brevilin A] (2.5 µM),0,0,0,2,0,0,0,0,0,0
C[C@H]1CC[C@]2(NC1)O[C@H]1C[C@H]3[C@@H]4CC[C@H]5C[C@@H](O)CC[C@]5(C)[C@H]4CC[C@]3(C)[C@H]1[C@@H]2C [Tomatidine] (2 µM),0,0,0,0,0,0,0,0,0,0
CCCCNc1nc(N)c2[nH]c(=O)n(Cc3ccc(C)nc3)c2n1 (10 µM),0,0,0,0,0,0,0,0,0,0
O=C1C=CC[C@@H]2[C@H]3CCCN4CCC[C@@H](CN12)[C@@H]34 [Sophocarpine (monohydrate)] (2.5 µM),0,0,0,0,0,0,0,0,0,0
O=C(O)c1sc2cc(Cl)ccc2c1Cl (10 µM),0,0,0,0,0,0,0,0,0,0
CC(=O)OC(C)(C)/C=C/C(=O)[C@](C)(O)[C@H]1[C@H](O)C[C@@]2(C)[C@@H]3CC=C4[C@@H](C=C(O)C(=O)C4(C)C)[C@]3(C)C(=O)C[C@]12C [Cucurbitacin E] (2.5 µM),0,0,0,1,4,0,0,2,1,3
CC1C(=O)OC2C(O)C34C5OC(=O)C3(OC3OC(=O)C(O)C34C(C(C)(C)C)C5O)C12O (stereo not given) [Ginkgolide C] (10 µM),0,0,0,0,0,0,0,0,0,0

# 2 entries from above, with tabs.
Compound	number of time points (CSNK1A1)	number of time points (CSNK1D)	number of time points (DDR1)	number of time points (DYRK1B)	number of time points (DYRK2)	number of time points (EGFR)	number of time points (EGFR_G719S)	number of time points (EGFR_G719S_T790M)	number of time points (EGFR_L718V)	number of time points (EGFR_L858R)
CC(C)=CC[C@@H](OC(=O)CC(C)(C)O)C1=CC(=O)c2c(O)ccc(O)c2C1=O [β-Hydroxyisovalerylshikonin] (2.5 µM)	0	0	0	0	0	0	0	0	0	0
C[C@@H]1CC[C@H]2[C@@H](C)C(=O)O[C@@H]3O[C@@]4(C)CC[C@@H]1[C@]32OO4 [Artemisinin] (10 µM)	0	0	0	0	0	0	0	0	0	0

# More records.

Compound,number of time points (CSNK1A1),number of time points (CSNK1D),number of time points (DDR1),number of time points (DYRK1B),number of time points (DYRK2),number of time points (EGFR),number of time points (EGFR_G719S),number of time points (EGFR_G719S_T790M),number of time points (EGFR_L718V),number of time points (EGFR_L858R)
Cc1ccccc1-n1c(Cn2cnc3c(N)ncnc32)nc2cccc(C)c2c1=O (10 µM),0,0,0,0,0,0,0,0,0,0
O=C1C=CC[C@@H]2[C@H]3CCCN4CCC[C@@H](CN12)[C@@H]34 [Sophocarpine] (10 µM),0,0,0,0,0,0,0,0,0,0
N#CC(C#N)=NNc1cccc(Cl)c1 (2.5 µM),0,0,0,0,0,0,0,2,0,0
COC[C@H]1OC(=O)c2coc3c2[C@@]1(C)C1=C(C3=O)[C@@H]2CCC(=O)[C@@]2(C)C[C@H]1OC(C)=O [Wortmannin] (2.5 µM),0,0,4,2,3,0,2,0,0,0
COc1ccc2c(c1OC)C(OC)N(C)c1c-2ccc2cc3c(cc12)OCO3 (stereo not given) [Angoline] (10 µM),0,0,0,0,0,0,0,0,0,0
O=c1[nH]c2ccccc2n1C1CCN(CCCC(c2ccc(F)cc2)c2ccc(F)cc2)CC1 [Pimozide] (2.5 µM),0,0,0,0,0,0,0,0,0,0
O=c1ccc2cc(O[C@@H]3O[C@H](CO)[C@@H](O)[C@H](O)[C@H]3O)c(O)cc2o1 [Esculin] (10 µM),0,0,0,0,0,0,0,0,0,0
C=CC(=O)N[C@H]1C=C(C)c2c(-c3cnc4ccccc4c3)c3c(N)ncnc3n2C1 (10 µM),0,0,0,0,0,0,0,0,0,0
Cn1cc(C2=C(c3cn(C4CCN(Cc5ccccn5)CC4)c4ccccc34)C(=O)NC2=O)c2ccccc21 [Enzastaurin] (10 µM),0,0,0,0,0,0,0,0,0,0
C[C@H]1CC[C@]2(NC1)O[C@H]1C[C@H]3[C@@H]4CC[C@H]5C[C@@H](O)CC[C@]5(C)[C@H]4CC[C@]3(C)[C@H]1[C@@H]2C [Tomatidine (hydrochloride)] (10 µM),0,0,0,0,0,0,0,0,0,0
CCCS(=O)(=O)Nc1ccc(F)c(-n2cc(-c3cncnc3)c3nc(N(C)C4CCN(CC)CC4)ccc32)c1F (2 µM),0,0,0,0,0,0,0,0,0,0
CCCCCCCCCCCCCCCCOC[C@H](COP(=O)([O-])OCC[N+](C)(C)C)OC(C)=O (10 µM),0,0,0,0,0,0,0,0,0,0
CC(=O)Oc1ccc(/C=C/c2cc(OC(C)=O)cc(OC(C)=O)c2)cc1 [Triacetylresveratrol] (10 µM),0,0,0,0,0,0,0,0,0,0
Cc1ccccc1-n1c(Cn2ncc3c(N)ncnc32)nc2cccc(C)c2c1=O (10 µM),0,0,0,0,0,0,0,0,0,0
O=C(O)c1nn(Cc2ccc(Cl)cc2Cl)c2ccccc12 [Lonidamine] (10 µM),0,0,0,0,0,0,0,0,0,0
COc1ccc2c(c[n+](C)c3c4cc5c(cc4ccc23)OCO5)c1OC [Chelerythrine (chloride)] (10 µM),0,0,4,0,0,0,0,0,0,0
Nc1ncnc2c1ncn2[C@@H]1O[C@@H]2COP(O)(=S)O[C@H]2[C@H]1O (stereo not given in full) [Sp-cAMPS (sodium salt)] (10 µM),0,0,0,0,0,0,0,0,0,0
O=C(N[C@@H](COc1ccc2[nH]c(=O)[nH]c2c1)c1ccccc1)c1cccn(Cc2ccc(F)c(F)c2)c1=O (2.5 µM),0,0,0,0,0,0,0,0,0,0
C/C(O)=C(\C#N)C(=O)Nc1cc(Br)ccc1Br (10 µM),0,0,0,0,0,0,0,0,0,0
